{"source": "paper PMC5919683", "about": "“Transcription factor HAT1 is a substrate of SnRK2.3 kinase and negatively regulates ABA synthesis and signaling in Arabidopsis responding to drought” (PLoS Genetics, 2018)", "binders": {"B1": {"name": "HAT1-cYFP (protein, UniProt P46600 1-282)", "chain": "MMMGKEDLGLSLSLGFAQNHPLQLNLKPTSSPMSNLQMFPWNQTLVSSSDQQKQQFLRKIDVNSLPTTVDLEEETGVSSPNSTISSTVSGKRRSTEREGTSGGGCGDDLDITLDRSSSRGTSDEEEDYGGETCRKKLRLSKDQSAVLEDTFKEHNTLNPKQKLALAKKLGLTARQVEVWFQNRRARTKLKQTEVDCEYLKRCVEKLTEENRRLEKEAAELRALKLSPRLYGQMSPPTTLLMCPSCERVAGPSSSNHNQRSVSLSPWLQMAHGSTFDVMRPRS"}, "B2": {"name": "HAT1-Flag (protein, UniProt P46600 1-282)", "chain": "B1 chain"}, "B3": {"name": "HAT1-1F (135–282) (domain or fragment, UniProt P46600 135-282)", "chain": "KKLRLSKDQSAVLEDTFKEHNTLNPKQKLALAKKLGLTARQVEVWFQNRRARTKLKQTEVDCEYLKRCVEKLTEENRRLEKEAAELRALKLSPRLYGQMSPPTTLLMCPSCERVAGPSSSNHNQRSVSLSPWLQMAHGSTFDVMRPRS"}, "B4": {"name": "HAT3 (BiFC fusion) (protein, UniProt P46602 1-315)", "chain": "MSERDDGLGLSLSLSLGFNQKDPSSRLNPMPLASYASSSHMQHMQQSNYNHPQKIQNTWINMFQSSERNSDMRSFLRGIDVNRAPSTVVVDVEDEGAGVSSPNSTVSSVMSGKKSERELMAAAGAVGGGRVEDNEIERASCSLGGGSDDEDGSGNGDDSSRKKLRLSKEQALVLEETFKEHSTLNPKQKMALAKQLNLRTRQVEVWFQNRRARTKLKQTEVDCEYLKRCCENLTDENRRLQKEVSELRALKLSPHLYMHMKPPTTLTMCPSCERVAVTSSSSSVAPPVMNSSSPMGPMSPWAAMPLRQRPAAGSH"}, "B5": {"name": "HAT1-2F (192–282) (domain or fragment, UniProt P46600 192-282)", "chain": "TEVDCEYLKRCVEKLTEENRRLEKEAAELRALKLSPRLYGQMSPPTTLLMCPSCERVAGPSSSNHNQRSVSLSPWLQMAHGSTFDVMRPRS"}}, "key": {"[1]": {"target": "HAT1-cYFP (Arabidopsis thaliana) (UniProt P46600)", "experiment": "split reporter; BiFC with halves of YFP in young leaves of Nicotiana benthamiana, agroinfiltrated, analysed 48 h after infiltration by fluorescence microscopy"}, "[2]": {"target": "T1, SnRK2.2-nYFP (Arabidopsis thaliana) (UniProt Q39192)", "T1 sequence": "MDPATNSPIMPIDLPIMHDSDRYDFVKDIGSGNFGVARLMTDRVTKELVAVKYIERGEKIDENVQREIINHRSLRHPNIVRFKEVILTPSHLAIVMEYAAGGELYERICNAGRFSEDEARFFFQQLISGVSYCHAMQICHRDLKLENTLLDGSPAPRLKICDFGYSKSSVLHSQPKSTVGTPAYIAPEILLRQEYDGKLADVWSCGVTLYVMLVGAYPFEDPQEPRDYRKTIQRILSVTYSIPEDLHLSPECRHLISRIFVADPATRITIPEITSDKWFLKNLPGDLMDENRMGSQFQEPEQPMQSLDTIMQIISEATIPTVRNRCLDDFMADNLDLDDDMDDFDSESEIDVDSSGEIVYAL", "experiment": "split reporter; BiFC with halves of YFP in young leaves of Nicotiana benthamiana, agroinfiltrated, analysed 48 h after infiltration by fluorescence microscopy"}, "[3]": {"target": "T2, SnRK2.3-nYFP (Arabidopsis thaliana) (UniProt Q39193)", "T2 sequence": "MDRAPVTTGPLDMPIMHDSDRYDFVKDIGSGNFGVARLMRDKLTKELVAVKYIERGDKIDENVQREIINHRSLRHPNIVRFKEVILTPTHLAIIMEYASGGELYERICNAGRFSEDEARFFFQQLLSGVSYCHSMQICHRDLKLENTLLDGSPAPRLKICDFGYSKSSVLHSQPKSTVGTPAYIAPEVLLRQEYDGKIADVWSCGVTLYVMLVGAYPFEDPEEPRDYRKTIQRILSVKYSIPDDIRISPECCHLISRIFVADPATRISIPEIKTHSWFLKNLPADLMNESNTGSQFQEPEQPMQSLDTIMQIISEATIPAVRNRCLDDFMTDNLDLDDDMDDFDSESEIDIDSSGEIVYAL", "experiment": "split reporter; BiFC with halves of YFP in young leaves of Nicotiana benthamiana, agroinfiltrated, analysed 48 h after infiltration by fluorescence microscopy"}, "[4]": {"target": "T3, SnRK2.6-nYFP (Arabidopsis thaliana) (UniProt Q940H6)", "T3 sequence": "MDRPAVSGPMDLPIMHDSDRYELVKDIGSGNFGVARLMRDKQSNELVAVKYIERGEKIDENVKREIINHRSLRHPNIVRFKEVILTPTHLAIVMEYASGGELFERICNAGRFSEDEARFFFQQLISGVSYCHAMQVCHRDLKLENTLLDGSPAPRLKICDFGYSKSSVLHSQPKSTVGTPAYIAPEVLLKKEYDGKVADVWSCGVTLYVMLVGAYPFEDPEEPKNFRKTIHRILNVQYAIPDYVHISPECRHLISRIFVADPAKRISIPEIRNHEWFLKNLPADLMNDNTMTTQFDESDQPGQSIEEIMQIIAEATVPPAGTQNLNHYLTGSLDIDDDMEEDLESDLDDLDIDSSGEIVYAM", "experiment": "split reporter; BiFC with halves of YFP in young leaves of Nicotiana benthamiana, agroinfiltrated, analysed 48 h after infiltration by fluorescence microscopy"}, "[5]": {"target": "T4, Myc-SnRK2.2 (Arabidopsis thaliana) (UniProt Q39192)", "T4 sequence": "T1 sequence", "experiment": "co-IP; Arabidopsis leaf protoplasts co-expressing Myc-SnRK2s and HAT1-Flag; extracts with Myc agarose beads at 4°C for 2 h; HAT1-Flag detected with anti-Flag antibody"}, "[6]": {"target": "T5, Myc-SnRK2.3 (Arabidopsis thaliana) (UniProt Q39193)", "T5 sequence": "T2 sequence", "experiment": "co-IP; Arabidopsis leaf protoplasts co-expressing Myc-SnRK2s and HAT1-Flag; extracts with Myc agarose beads at 4°C for 2 h; HAT1-Flag detected with anti-Flag antibody"}, "[7]": {"target": "T6, Myc-SnRK2.6 (Arabidopsis thaliana) (UniProt Q940H6)", "T6 sequence": "T3 sequence", "experiment": "co-IP; Arabidopsis leaf protoplasts co-expressing Myc-SnRK2s and HAT1-Flag; extracts with Myc agarose beads at 4°C for 2 h; HAT1-Flag detected with anti-Flag antibody"}}, "note": "Results are given in words; binding and its absence hold for the method and conditions named. In cells and extracts the contact can be indirect. Some entries that bind do so weakly or less than the wild type. Tags and fused reporters may be left off the sequences shown."}
{"binder": "B1", "values": [{"measurement": "binding", "setting": "[1]", "result": "binds"}, {"measurement": "binding", "setting": "[2]", "result": "binds weakly"}, {"measurement": "binding", "setting": "[3]", "result": "binds"}, {"measurement": "binding", "setting": "[4]", "result": "binds weakly"}]}
{"binder": "B2", "values": [{"measurement": "binding", "setting": "[5]", "result": "binds"}, {"measurement": "binding", "setting": "[6]", "result": "binds"}, {"measurement": "binding", "setting": "[7]", "result": "binds"}]}
{"binder": "B3", "values": [{"measurement": "binding", "setting": "[3]", "result": "binds weakly"}]}
{"binder": "B4", "values": [{"measurement": "binding", "setting": "[3]", "result": "binds"}]}
{"binder": "B5", "values": [{"measurement": "binding", "setting": "[3]", "result": "no binding"}]}
{"binder": "SPPTTLLMCPSCERVAGPSSSNHNQRSVSLSPWLQMAHGSTFDVMRPRS (domain or fragment, UniProt P46600 234-282)", "note": "[HAT1-3F (234–282)]", "values": [{"measurement": "binding", "setting": "[3]", "result": "no binding"}]}
